The other results are listed elsewhere or left out.
Columns and labels:
Experiment in all cases: log2 fold change, soluble protein after heating vs DMSO (PISA); higher = thermal stabilisation; K562 lysate, 10 uM; active = over 0.2 and 3.5 SD of the protein, either way, in both replicates (recomputed)
lapatinib = compound: CS(=O)(=O)CCNCc1ccc(-c2ccc3ncnc(Nc4ccc(OCc5cccc(F)c5)c(Cl)c4)c3c2)o1 [lapatinib]
In short: (§1)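 Thermal stability, expressed as log-two fold change relative to solvent controls, is given from duplicates. Crude K562 extract in PBS pH 7.4 with 1 mM MgCl2, at 1 mg/mL protein, was treated with 10 μM compound for 30 min and heated in aliquots for 3 min across 48°C-58°C. After pooling, adjustment to 0.5% NP-40 at 4°C and centrifugation at 21,000xg for 90 min, supernatant protein was measured by TMTpro 16plex LC-MS/MS with channel sums equalised.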

The chains behind the UniProt entries cited, without tags or fusion partners. Where a name states a change or a piece, a line headed by the entry shows the natural chain unless it says otherwise.
UniProt O60613, whole entry, looked up: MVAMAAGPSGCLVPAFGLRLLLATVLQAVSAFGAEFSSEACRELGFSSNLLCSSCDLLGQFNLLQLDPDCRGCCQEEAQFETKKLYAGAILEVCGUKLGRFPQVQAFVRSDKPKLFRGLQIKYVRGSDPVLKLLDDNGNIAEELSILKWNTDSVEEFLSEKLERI
UniProt Q9H4L4: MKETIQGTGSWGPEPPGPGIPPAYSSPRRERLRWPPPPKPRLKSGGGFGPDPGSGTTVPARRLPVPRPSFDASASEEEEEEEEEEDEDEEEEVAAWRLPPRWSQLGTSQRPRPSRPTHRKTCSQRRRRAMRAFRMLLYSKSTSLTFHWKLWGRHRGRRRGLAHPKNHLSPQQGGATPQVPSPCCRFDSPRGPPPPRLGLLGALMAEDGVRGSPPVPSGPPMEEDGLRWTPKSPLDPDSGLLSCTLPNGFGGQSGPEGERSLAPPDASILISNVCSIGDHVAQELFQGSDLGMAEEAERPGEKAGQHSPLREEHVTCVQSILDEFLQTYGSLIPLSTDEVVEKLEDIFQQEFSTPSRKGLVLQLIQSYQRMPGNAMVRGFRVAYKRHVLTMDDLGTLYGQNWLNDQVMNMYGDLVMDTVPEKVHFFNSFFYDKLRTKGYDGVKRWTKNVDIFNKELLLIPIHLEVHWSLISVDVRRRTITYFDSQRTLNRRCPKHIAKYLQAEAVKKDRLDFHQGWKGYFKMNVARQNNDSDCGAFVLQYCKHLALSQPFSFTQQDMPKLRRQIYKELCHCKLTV
UniProt Q9NRG7: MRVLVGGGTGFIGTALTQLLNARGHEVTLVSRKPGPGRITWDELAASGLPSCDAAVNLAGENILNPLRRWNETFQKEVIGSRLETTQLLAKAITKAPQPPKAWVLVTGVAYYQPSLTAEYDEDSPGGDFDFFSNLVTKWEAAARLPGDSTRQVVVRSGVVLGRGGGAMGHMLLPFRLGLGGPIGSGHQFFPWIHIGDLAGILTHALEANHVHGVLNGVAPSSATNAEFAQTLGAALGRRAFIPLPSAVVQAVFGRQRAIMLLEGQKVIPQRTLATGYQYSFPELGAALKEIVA
UniProt Q6SPF0: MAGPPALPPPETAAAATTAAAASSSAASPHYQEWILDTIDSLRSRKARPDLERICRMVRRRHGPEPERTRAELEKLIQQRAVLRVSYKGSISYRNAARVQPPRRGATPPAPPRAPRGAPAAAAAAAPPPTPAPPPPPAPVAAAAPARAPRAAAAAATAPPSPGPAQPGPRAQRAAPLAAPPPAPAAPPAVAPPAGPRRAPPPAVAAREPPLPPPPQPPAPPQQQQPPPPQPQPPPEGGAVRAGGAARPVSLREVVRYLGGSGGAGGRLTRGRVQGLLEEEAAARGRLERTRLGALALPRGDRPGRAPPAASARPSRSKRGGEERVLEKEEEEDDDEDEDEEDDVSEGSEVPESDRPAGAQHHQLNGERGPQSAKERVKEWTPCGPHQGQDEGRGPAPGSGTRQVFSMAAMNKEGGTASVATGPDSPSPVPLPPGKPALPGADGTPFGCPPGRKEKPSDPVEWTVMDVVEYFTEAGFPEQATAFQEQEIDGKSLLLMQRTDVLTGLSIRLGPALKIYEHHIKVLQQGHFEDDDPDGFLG
UniProt O75845: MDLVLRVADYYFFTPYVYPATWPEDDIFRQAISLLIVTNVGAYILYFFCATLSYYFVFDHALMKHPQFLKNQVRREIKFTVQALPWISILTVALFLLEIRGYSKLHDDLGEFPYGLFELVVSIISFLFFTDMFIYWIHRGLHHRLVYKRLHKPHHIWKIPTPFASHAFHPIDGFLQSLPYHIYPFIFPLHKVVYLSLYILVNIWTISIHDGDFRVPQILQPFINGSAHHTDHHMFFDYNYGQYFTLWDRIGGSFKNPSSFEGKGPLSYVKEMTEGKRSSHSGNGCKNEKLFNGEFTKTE
UniProt Q9UPU9: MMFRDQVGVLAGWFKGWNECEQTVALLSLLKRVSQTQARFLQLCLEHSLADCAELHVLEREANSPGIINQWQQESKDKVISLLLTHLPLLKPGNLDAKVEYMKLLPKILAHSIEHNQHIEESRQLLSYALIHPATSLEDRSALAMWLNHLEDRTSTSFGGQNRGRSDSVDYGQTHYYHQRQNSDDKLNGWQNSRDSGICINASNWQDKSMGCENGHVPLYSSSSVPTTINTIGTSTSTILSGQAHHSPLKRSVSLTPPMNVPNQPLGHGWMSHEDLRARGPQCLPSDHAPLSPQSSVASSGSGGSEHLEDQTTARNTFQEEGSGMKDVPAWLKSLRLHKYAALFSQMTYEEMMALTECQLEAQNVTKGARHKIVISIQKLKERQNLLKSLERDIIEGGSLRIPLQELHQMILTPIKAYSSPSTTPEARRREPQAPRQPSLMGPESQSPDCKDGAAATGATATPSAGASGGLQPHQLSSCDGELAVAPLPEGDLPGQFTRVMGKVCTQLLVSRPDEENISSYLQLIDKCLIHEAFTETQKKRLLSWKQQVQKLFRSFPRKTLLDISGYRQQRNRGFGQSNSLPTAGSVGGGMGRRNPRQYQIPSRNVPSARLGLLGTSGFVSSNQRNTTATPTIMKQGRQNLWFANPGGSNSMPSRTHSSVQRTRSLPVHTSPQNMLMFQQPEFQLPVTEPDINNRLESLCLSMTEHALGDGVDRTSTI
UniProt Q9BWG6: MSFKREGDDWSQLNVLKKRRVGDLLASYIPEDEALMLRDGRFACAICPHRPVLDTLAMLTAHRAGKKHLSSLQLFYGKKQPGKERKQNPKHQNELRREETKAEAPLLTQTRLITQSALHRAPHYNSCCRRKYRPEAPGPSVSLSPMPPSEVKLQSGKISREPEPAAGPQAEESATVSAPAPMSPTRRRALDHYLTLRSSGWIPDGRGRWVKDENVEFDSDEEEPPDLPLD
UniProt Q9NX18: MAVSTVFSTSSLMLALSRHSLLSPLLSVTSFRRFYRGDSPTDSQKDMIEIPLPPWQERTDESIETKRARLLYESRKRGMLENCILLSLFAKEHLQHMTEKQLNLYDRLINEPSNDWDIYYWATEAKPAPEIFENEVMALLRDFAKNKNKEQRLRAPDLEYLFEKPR
UniProt Q14108: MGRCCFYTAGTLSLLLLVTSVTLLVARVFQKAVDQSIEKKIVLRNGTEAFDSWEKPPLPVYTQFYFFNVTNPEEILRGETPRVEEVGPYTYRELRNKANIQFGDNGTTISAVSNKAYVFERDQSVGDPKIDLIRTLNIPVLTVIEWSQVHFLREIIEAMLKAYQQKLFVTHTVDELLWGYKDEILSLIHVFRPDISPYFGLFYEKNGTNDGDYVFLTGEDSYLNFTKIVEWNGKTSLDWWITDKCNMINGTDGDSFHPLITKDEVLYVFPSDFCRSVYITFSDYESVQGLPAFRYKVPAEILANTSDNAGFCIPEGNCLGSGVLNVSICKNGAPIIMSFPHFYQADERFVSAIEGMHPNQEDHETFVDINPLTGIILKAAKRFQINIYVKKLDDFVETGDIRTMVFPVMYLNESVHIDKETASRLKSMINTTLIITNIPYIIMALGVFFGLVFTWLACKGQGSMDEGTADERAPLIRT
UniProt Q96IW7: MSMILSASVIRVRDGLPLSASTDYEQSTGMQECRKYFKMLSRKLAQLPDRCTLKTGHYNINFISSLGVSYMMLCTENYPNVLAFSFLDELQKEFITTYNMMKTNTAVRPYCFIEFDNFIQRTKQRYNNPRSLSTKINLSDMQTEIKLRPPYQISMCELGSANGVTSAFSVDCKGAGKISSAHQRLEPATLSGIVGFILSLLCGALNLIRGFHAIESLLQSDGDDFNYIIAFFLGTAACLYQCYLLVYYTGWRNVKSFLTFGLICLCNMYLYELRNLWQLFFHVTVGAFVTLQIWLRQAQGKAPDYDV
UniProt Q9BY50: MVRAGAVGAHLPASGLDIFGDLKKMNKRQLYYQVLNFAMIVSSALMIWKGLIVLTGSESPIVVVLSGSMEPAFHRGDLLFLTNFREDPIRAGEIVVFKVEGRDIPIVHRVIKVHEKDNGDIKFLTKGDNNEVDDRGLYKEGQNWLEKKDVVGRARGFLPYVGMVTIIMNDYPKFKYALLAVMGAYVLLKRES
UniProt P57086: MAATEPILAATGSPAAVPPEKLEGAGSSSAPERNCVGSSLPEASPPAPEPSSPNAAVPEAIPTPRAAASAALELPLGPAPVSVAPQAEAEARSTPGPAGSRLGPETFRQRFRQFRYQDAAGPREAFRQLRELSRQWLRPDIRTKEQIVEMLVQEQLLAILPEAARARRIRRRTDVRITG
UniProt A6NKF1: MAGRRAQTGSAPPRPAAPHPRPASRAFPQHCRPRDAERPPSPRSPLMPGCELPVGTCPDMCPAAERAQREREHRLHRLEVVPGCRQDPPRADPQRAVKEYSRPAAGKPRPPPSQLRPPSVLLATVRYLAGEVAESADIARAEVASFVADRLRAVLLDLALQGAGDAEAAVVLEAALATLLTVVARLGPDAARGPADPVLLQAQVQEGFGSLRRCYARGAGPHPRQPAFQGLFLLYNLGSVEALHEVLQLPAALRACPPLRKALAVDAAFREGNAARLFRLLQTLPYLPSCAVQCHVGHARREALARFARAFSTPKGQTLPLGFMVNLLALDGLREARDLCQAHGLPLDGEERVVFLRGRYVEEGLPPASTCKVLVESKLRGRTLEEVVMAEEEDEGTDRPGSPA
UniProt Q8N9R8: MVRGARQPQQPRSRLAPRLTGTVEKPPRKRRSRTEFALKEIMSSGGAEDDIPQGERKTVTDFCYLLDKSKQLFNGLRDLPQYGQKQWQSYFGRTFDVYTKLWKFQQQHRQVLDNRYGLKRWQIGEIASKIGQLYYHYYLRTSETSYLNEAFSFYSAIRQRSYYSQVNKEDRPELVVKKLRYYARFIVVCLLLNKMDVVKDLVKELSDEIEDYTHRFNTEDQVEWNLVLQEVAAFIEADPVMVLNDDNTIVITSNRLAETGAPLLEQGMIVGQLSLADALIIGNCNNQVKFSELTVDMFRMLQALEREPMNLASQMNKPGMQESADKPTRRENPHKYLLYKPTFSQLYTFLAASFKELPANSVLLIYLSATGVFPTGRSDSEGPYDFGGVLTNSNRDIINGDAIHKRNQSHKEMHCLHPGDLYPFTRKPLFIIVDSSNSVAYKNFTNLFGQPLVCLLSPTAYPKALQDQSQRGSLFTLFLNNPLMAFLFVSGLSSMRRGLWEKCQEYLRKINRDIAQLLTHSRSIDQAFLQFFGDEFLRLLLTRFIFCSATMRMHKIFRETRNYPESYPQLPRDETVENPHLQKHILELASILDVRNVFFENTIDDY
UniProt O75056, whole entry, looked up: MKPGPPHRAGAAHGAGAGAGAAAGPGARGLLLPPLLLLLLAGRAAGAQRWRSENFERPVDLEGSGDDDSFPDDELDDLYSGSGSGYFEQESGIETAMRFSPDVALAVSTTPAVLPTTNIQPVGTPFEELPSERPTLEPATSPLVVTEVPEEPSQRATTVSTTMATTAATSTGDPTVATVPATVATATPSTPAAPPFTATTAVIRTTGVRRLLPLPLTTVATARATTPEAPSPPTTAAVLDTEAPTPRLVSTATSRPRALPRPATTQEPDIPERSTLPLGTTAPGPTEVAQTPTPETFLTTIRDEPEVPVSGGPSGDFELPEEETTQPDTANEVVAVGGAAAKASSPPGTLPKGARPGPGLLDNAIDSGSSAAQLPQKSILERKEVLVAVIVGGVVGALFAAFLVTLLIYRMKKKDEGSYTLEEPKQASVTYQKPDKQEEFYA

pictilisib = compound: CS(=O)(=O)N1CCN(Cc2cc3nc(-c4cccc5[nH]ncc45)nc(N4CCOCC4)c3s2)CC1 [pictilisib]
In short: as §1

crizotinib = compound: C[C@@H](Oc1cc(-c2cnn(C3CCNCC3)c2)cnc1N)c1c(Cl)ccc(F)c1Cl [crizotinib]
In short: as §1

[1] = compound: C[C@H](C1=CC=C(C=C1)C(=O)NC2=C3C=CNC3=NC=C2)N
In short: as §1

duvelisib = compound: C[C@H](Nc1ncnc2nc[nH]c12)c1cc2cccc(Cl)c2c(=O)n1-c1ccccc1 [duvelisib]
In short: as §1

gandotinib = compound: Cc1cc(Nc2cc(CN3CCOCC3)c3nc(C)c(Cc4ccc(Cl)cc4F)n3n2)n[nH]1 [gandotinib]
In short: as §1

tozasertib = compound: Cc1cc(Nc2cc(N3CCN(C)CC3)nc(Sc3ccc(NC(=O)C4CC4)cc3)n2)n[nH]1 [tozasertib]
In short: as §1

doramapimod = compound: Cc1ccc(-n2nc(C(C)(C)C)cc2NC(=O)Nc2ccc(OCCN3CCOCC3)c3ccccc23)cc1 [doramapimod]
In short: as §1

bafetinib = compound: Cc1ccc(NC(=O)c2ccc(CN3CC[C@H](N(C)C)C3)c(C(F)(F)F)c2)cc1Nc1nccc(-c2cncnc2)n1 [bafetinib]
In short: as §1

[2] = compound: Cc1cccc(CC(=O)N2CCc3c2ccc(-c2cn(C)c4ncnc(N)c24)c3F)n1
In short: as §1

nilotinib = compound: Cc1cn(-c2cc(NC(=O)c3ccc(C)c(Nc4nccc(-c5cccnc5)n4)c3)cc(C(F)(F)F)c2)cn1 [nilotinib]
In short: as §1

[3] = compound: Cc1nc(Nc2n[nH]c3c2CN(C(=O)N[C@H](CN(C)C)c2ccccc2)C3(C)C)c2sccc2n1
In short: as §1

dasatinib = compound: Cc1nc(Nc2ncc(C(=O)Nc3c(C)cccc3Cl)s2)cc(N2CCN(CCO)CC2)n1 [dasatinib]
In short: as §1

[4] = compound: Cc1ncc(-c2ccnc(Nc3ccc(S(C)(=O)=O)cc3)n2)n1C(C)C
In short: as §1

[5] = compound: Cn1cc(-c2ccc3c(c2)CCN3C(=O)Cc2cccc(C(F)(F)F)c2)c2c(N)ncnc21
In short: as §1

quisinostat = compound: Cn1cc(CNCC2CCN(c3ncc(C(=O)NO)cn3)CC2)c2ccccc21 [quisinostat]
In short: as §1

tipifarnib = compound: Cn1cncc1[C@@](N)(c1ccc(Cl)cc1)c1ccc2c(c1)c(-c1cccc(Cl)c1)cc(=O)n2C [tipifarnib]
In short: as §1

[6] = compound: NC(=O)Nc1cc(-c2cccc(F)c2)sc1C(=O)N[C@H]1CCCNC1
In short: as §1

[7] = compound: NC(=O)c1cnc(N[C@@H]2CCCC[C@@H]2N)nc1Nc1cccc(-n2nccn2)c1
In short: as §1

[8] = compound: NC1(c2ccc(-c3nc4ccn5c(=O)[nH]nc5c4cc3-c3ccccc3)cc2)CCC1
In short: as §1

Measured: log2 fold change

SELENOF (UniProt O60613)
inactive: lapatinib -0.013 | pictilisib 0.025 | crizotinib 0 | [1] 0.016 | duvelisib 0.02 | gandotinib 0.017 | tozasertib -0.023 | doramapimod -0.002 | bafetinib -0.052 | [2] -0.031 | nilotinib 0.061 | [3] -0.006 | dasatinib 0.001 | [4] 0.03 | [5] 0.025 | quisinostat -0.009 | tipifarnib -0.026 | [6] -0.003 | [7] -0.035 | [8] -0.034

SENP3 (UniProt Q9H4L4)
inactive: lapatinib -0.093 | crizotinib -0.03 | [1] 0.016 | duvelisib 0.03 | gandotinib 0.15 | tozasertib 0.199 | doramapimod -0.062 | [2] 0.188 | dasatinib -0.016 | [5] 0.181 | quisinostat 0.075 | [6] 0.102 | [7] 0.38 | [8] -0.075

SDR39U1 (UniProt Q9NRG7)
inactive: lapatinib 0.249 | pictilisib -0.298 | [1] 0.036 | gandotinib 0.549 | bafetinib 0.217 | [2] 0.024 | nilotinib 0.024 | [3] -0.126 | [4] -0.065 | tipifarnib 0 | [7] 0 | [8] -0.175

SEC31A (UniProt H0YAB3)
inactive: lapatinib -0.021 | pictilisib -0.016 | [1] -0.053 | duvelisib 0.043 | gandotinib 0.022 | bafetinib 0.018 | [2] 0.057 | nilotinib 0.015 | [3] 0.035 | dasatinib -0.057 | [4] 0.135 | [5] 0.016 | tipifarnib -0.073 | [7] 0.054 | [8] -0.021

SAMD1 (UniProt Q6SPF0)
inactive: lapatinib 0.004 | crizotinib -0.078 | [1] -0.362 | duvelisib 0.149 | gandotinib 0.178 | tozasertib 0.134 | doramapimod 0.092 | [2] 0.08 | nilotinib 0.102 | [3] -0.021 | dasatinib 0.031 | [4] -0.022 | [5] 0.007 | quisinostat -0.037 | tipifarnib 0.068 | [6] 0.042 | [7] 0.008

SC5D (UniProt O75845)
inactive: lapatinib -0.02 | crizotinib 0.009 | [1] -0.019 | gandotinib 0.018 | tozasertib -0.002 | doramapimod -0.033 | [2] 0.045 | quisinostat -0.127 | [6] 0.017 | [7] -0.005

SAMD4A (UniProt Q9UPU9)
inactive: lapatinib 0.282 | pictilisib 0.047 | crizotinib -0.041 | [1] -0.064 | duvelisib -0.046 | gandotinib -0.036 | tozasertib 0.088 | doramapimod 0.019 | bafetinib -0.215 | [2] 0.101 | dasatinib -0.228 | [5] -0.005 | quisinostat -0.069 | [6] 0.058 | [7] -0.023 | [8] 0.012

SCNM1 (UniProt Q9BWG6)
inactive: lapatinib 0.006 | crizotinib 0.057 | [1] 0.022 | duvelisib 0.057 | gandotinib 0.015 | tozasertib -0.039 | doramapimod -0.017 | [2] -0.157 | nilotinib -0.078 | [3] -0.045 | dasatinib 0.122 | [4] -0.091 | [5] 0.015 | quisinostat -0.061 | tipifarnib 0.045 | [6] 0.06 | [7] -0.104 | [8] -0.106

SDHAF2 (UniProt Q9NX18)
inactive: lapatinib -0.003 | pictilisib -0.043 | crizotinib -0.048 | duvelisib 0.003 | tozasertib 0.006 | doramapimod -0.033 | bafetinib 0.082 | nilotinib 0.097 | [3] 0.043 | dasatinib -0.003 | [4] 0.003 | [5] -0.04 | quisinostat -0.033 | tipifarnib -0.068 | [6] 0.005 | [7] 0.006 | [8] 0.011

SCARB2 isoform 2 (UniProt Q14108)
inactive: lapatinib 0 | pictilisib -0.11 | [1] -0.244 | duvelisib -0.172 | gandotinib 0.049 | bafetinib -0.018 | [2] -0.073 | nilotinib 0.049 | [3] 0.006 | dasatinib 0 | [4] -0.074 | [5] 0.092 | tipifarnib -0.004 | [7] 0.049

SEC22A (UniProt Q96IW7)
inactive: lapatinib -0.087 | pictilisib -0.046 | crizotinib -0.065 | doramapimod -0.059 | bafetinib -0.043 | nilotinib -0.097 | [3] -0.013 | [4] 0.338 | quisinostat 0.072 | tipifarnib -0.242 | [6] -0.112 | [7] 0.053

SEC11C (UniProt Q9BY50)
inactive: lapatinib -0.05 | pictilisib -0.028 | crizotinib -0.168 | [1] -0.083 | duvelisib -0.064 | gandotinib 0.08 | doramapimod 0.03 | bafetinib 0.012 | [2] 0.208 | nilotinib -0.012 | [3] -0.015 | dasatinib -0.078 | [4] 0.026 | [5] -0.025 | quisinostat -0.195 | tipifarnib -0.01 | [6] 0.001 | [7] 0.05 | [8] 0.061

2 successive records out of the list so far, for reference:
SCNM1 (UniProt Q9BWG6)
inactive: lapatinib 0.006 | crizotinib 0.057 | [1] 0.022 | duvelisib 0.057 | gandotinib 0.015 | tozasertib -0.039 | doramapimod -0.017 | [2] -0.157 | nilotinib -0.078 | [3] -0.045 | dasatinib 0.122 | [4] -0.091 | [5] 0.015 | quisinostat -0.061 | tipifarnib 0.045 | [6] 0.06 | [7] -0.104 | [8] -0.106

SDHAF2 (UniProt Q9NX18)
inactive: lapatinib -0.003 | pictilisib -0.043 | crizotinib -0.048 | duvelisib 0.003 | tozasertib 0.006 | doramapimod -0.033 | bafetinib 0.082 | nilotinib 0.097 | [3] 0.043 | dasatinib -0.003 | [4] 0.003 | [5] -0.04 | quisinostat -0.033 | tipifarnib -0.068 | [6] 0.005 | [7] 0.006 | [8] 0.011

Remaining list, next part.

SCAND1 (UniProt P57086)
inactive: crizotinib 0.111 | doramapimod 0.173 | quisinostat 0.152 | [6] -0.12

SAC3D1 (UniProt A6NKF1)
inactive: pictilisib -0.072 | crizotinib 0.074 | [1] 0.036 | gandotinib -0.178 | doramapimod -0.006 | bafetinib -0.031 | [2] -0.187 | nilotinib -0.118 | [3] 0.116 | [4] 0.109 | quisinostat -0.124 | tipifarnib 0.061 | [6] -0.043

SDHB, A0A087WXX8
inactive: [1] -0.1 | gandotinib 0.088 | [2] 0.251 | nilotinib -0.034 | [3] -0.109 | [4] 0.022 | tipifarnib -0.255

SCAI isoform 2 (UniProt Q8N9R8)
inactive: pictilisib 0 | [1] 0.231 | gandotinib -0.089 | tozasertib 0.13 | bafetinib -0.107 | [2] 0.097 | nilotinib 0.017 | [3] -0.214 | [4] 0.053 | tipifarnib 0.36

SDC3 (UniProt O75056)
inactive: crizotinib 0.003 | duvelisib -0.157 | doramapimod 0.045 | dasatinib 0.119 | [5] -0.073 | quisinostat -0.1 | [6] -0.024 | [8] -0.075

From the supplement of paper PMC10849652
